In PubChem BioAssay AID493014 (National Center for Advancing Translational Sciences (NCATS), 2011):
Some of the results follow. Further columns of the screen follow, without active or inactive calls. Compounds called inactive in the main read-out are mostly missing here. Potencies come from curve fits of mixed quality, noted in brackets.

Experiment: qHTS Assay to Find Inhibitors of Chronic Active B-Cell Receptor Signaling
Settings: ABC-DLBCL IkBa-CBG/CBR reporter, luminescence ratio (green luciferase fused to IkBa over red control in TMD8 lymphoma cells), 4 h
In short: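 Doxycycline induced both beetle luciferases in TMD8 lymphoma cells; IKK-driven degradation limits the IkappaBalpha-fused green signal, while red luminescence normalises for cell number and nonspecific effects. Compounds tested up to 46 uM, 4 hrs.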

[1] = measured here: CBR red luminescence, cell number
[2] = measured here: IkBa-CBG green luminescence

Row | Structure (SMILES) | AC50 [1] | AC50 [2]
1 | CCN(CC)CCN(Cc1cc2ccc(C)c(C)c2[nH]c1=O)C(=S)NCc1ccco1 | 15.8 µM [falling, single point] | –
2 | CCCc1[nH]n(-c2nc3ccccc3s2)c(=O)c1C=NCC1CCCO1 (stereo unspecified) | 8.91 µM [falling, partial curve, poor fit] | –
3 | Cc1c(Cl)c(C(=O)NNC(=S)Nc2ccccc2)nn1C | 1.64 µM [falling, full curve, poor fit] | –
4 | CCOc1ccc(N(CC(=O)Nc2cccc(OC)c2)S(=O)(=O)c2c(C)noc2C)cc1 | 10.3 µM [falling, partial curve, poor fit] | –
5 | O=C(CSc1nnc(C2CC2)n1Cc1ccccc1)c1ccc(S(=O)(=O)N2CCOCC2)cc1 | 23.1 µM [rising, single point] | –
6 | O=C(Nc1nc(N2C(=O)c3ccccc3C2=O)n(-c2ccccc2)n1)c1ccccc1 | 5.17 µM [falling, partial curve] | –
7 | Cc1ccc(C(=O)NCC(=O)OC(C)C(=O)Nc2ccc(N3CCOCC3)cc2)s1 (stereo unspecified) | 15.8 µM [rising, single point] | –
8 | COc1ccccc1NC(=O)CNC(=O)c1ccc(F)cc1 | 17.8 µM [falling, single point] | –
9 | CC(C)C[C@@H](CO)N(Cc1ccccc1)S(=O)(=O)N(Cc1ccccc1)[C@@H](CO)CC(C)C | 16.4 µM [falling, partial curve] | –
10 | CC1=NN(C(=O)c2ccccc2)C(O)(c2ccc(Br)cc2)C1 (stereo unspecified) | 12.6 µM [falling, partial curve] | –
11 | CCN1C(=O)N(CC)C2NC(=S)NC21 (stereo unspecified) | 6.51 µM [rising, partial curve, poor fit] | –
12 | N/C(=N\OC(=O)c1ccc(Cl)cc1Cl)c1ccncc1 | 15.8 µM [rising, partial curve, poor fit] | –
13 | COc1ccc(/C=C2\SC(=S)N(CCC(=O)Nc3ccccn3)C2=O)cc1OC | 11.2 µM [falling, partial curve, poor fit] | –
14 | O=C(C1=C[C@H](C2CCCCC2)C[C@H](OCCCCO)O1)N1CCN(Cc2ccc3c(c2)OCO3)CC1 | 6.31 µM [rising, single point] | –
15 | CC(=O)c1ccc(NC(=O)CN2C(=O)/C(=C/C=C/c3ccccc3)SC2=S)cc1 | 4.61 µM [falling, single point] | –
16 | CCOC(=O)c1c(CSc2ccc(C)cc2)n(C)c2cc(Br)c(O)c(CN(C)C)c12 | 35.5 µM [falling, single point] | –
17 | CN(C)/C=C/c1onc(-c2c(F)cccc2Cl)c1C#N | 10 µM [rising, partial curve, poor fit] | –
18 | CC1CN(C(=S)Nc2ccc(Br)cc2)CC(C)O1 (stereo unspecified) | 10 µM [rising, partial curve, poor fit] | –
19 | O=C(/C(C=Nc1cc2c(oc1=O)CCCC2=O)=C(\O)c1ccccc1)c1ccccc1 | 2.82 µM [rising, full curve] | –
20 | Cc1ccnc(NS(=O)(=O)c2ccc(NC(=O)c3oc4ccc(F)cc4c3C)cc2)n1 | 14.1 µM [falling, single point] | –
21 | CCCCC(=O)NC(c1ccc([N+](=O)[O-])cc1)c1c(O)ccc2ccccc12 (stereo unspecified) | 25.9 µM [falling, single point] | 20.6 µM [rising, single point]

Row | Structure (SMILES) | AC50 [1] | AC50 [2]
22 | COc1ccc(NC(=O)CCS(=O)(=O)c2cc(Br)cc3c2N(C(C)=O)CC3)c(OC)c1 | 35.5 µM [falling, single point] | –
23 | O=c1c(-c2ccc(O)cc2)coc2cc(O)cc(O)c12 | 6.31 µM [falling, partial curve, poor fit] | –
24 | Cc1cc[n+](-c2nc([O-])sc2/C=N/Nc2ccc([N+](=O)[O-])cc2)cc1 | 0.731 µM [rising, full curve, poor fit] | –
25 | O=C(Nc1ccc(CN2CCOCC2)cc1)c1ccccc1F | 11.6 µM [falling, partial curve] | –
26 | Cc1ccc(C(=O)CC(=O)c2ccc(C)cc2O)cc1 | 35.5 µM [rising, single point] | –
27 | COc1cc(N/C=C(\C(C)=O)c2ccccc2)cc(OC)c1 | 14.6 µM [rising, partial curve, poor fit] | –
28 | Cc1cc(NS(C)(=O)=O)c(=O)n(Cc2c(F)cccc2Cl)c1 | 25.1 µM [rising, partial curve, poor fit] | –
29 | COc1ccc(C(=O)Nc2cccnc2)cc1OC | 29.1 µM [falling, single point] | –
30 | O=C(CCCN1C(=O)/C(=C/c2ccccc2)SC1=S)Nc1ccc(O)cc1 | 2.24 µM [falling, full curve] | –
31 | Cc1ccc(NC(=O)c2ccc(-c3nn(C)c(=O)c4ccccc34)cc2)c(C)c1 | 6.51 µM [rising, single point] | –
32 | Nc1cc2nsnc2cc1Br | 22.4 µM [falling, single point] | –
33 | Brc1ccc(-c2nnc(-c3ccc4c(c3)OCO4)o2)o1 | 0.092 µM [rising, full curve, poor fit] | –
34 | COc1ccc(-c2nc(CN3CCC(C(=O)N4CCOCC4)CC3)c(C)o2)cc1C | 2.51 µM [rising, full curve] | –
35 | CCN(CC)CCNC(=O)c1cn(CC)c2cc(N3CCN(C)CC3)c(F)cc2c1=O | 25.1 µM [falling, single point] | 35.5 µM [rising, partial curve, poor fit]
36 | O=C(Cc1ccc(Br)cc1)Nc1cccc(S(=O)(=O)N2CCOCC2)c1 | 2.91 µM [rising, partial curve, poor fit] | –
37 | COc1ccccc1OCCCn1cc(C#N)c2ccccc21 | 29.1 µM [falling, single point] | –
38 | COc1ccc(-c2cc(=O)[nH]c(NCc3ccccc3)n2)cc1 | 3.26 µM [rising, partial curve, poor fit] | 20.6 µM [falling, partial curve, poor fit]
39 | CCOc1cc(-c2noc(N)c2C#N)cc(OCC)c1OCC | 4.47 µM [falling, partial curve, poor fit] | –
40 | O=C(COc1ccccc1Cl)Nc1ccc(Cl)cn1 | 0.501 µM [rising, full curve, poor fit] | –
41 | COc1ccc(-c2c(-c3cc(OC)c(OC)c(OC)c3)noc2C)cn1 | 14.1 µM [rising, partial curve] | 11.2 µM [falling, partial curve]
42 | Cc1ccc(N2C(=O)N(CC(=O)Nc3c(C)cc(C)cc3Cl)C(=O)C2C)cc1 (stereo unspecified) | 6.51 µM [rising, partial curve] | –

Exported comma-delimited: 18 of the compounds above.
Row,Structure (SMILES),AC50 [1],AC50 [2]
24,Cc1cc[n+](-c2nc([O-])sc2/C=N/Nc2ccc([N+](=O)[O-])cc2)cc1,"0.731 µM [rising, full curve, poor fit]",–
25,O=C(Nc1ccc(CN2CCOCC2)cc1)c1ccccc1F,"11.6 µM [falling, partial curve]",–
26,Cc1ccc(C(=O)CC(=O)c2ccc(C)cc2O)cc1,"35.5 µM [rising, single point]",–
27,COc1cc(N/C=C(\C(C)=O)c2ccccc2)cc(OC)c1,"14.6 µM [rising, partial curve, poor fit]",–
28,Cc1cc(NS(C)(=O)=O)c(=O)n(Cc2c(F)cccc2Cl)c1,"25.1 µM [rising, partial curve, poor fit]",–
29,COc1ccc(C(=O)Nc2cccnc2)cc1OC,"29.1 µM [falling, single point]",–
30,O=C(CCCN1C(=O)/C(=C/c2ccccc2)SC1=S)Nc1ccc(O)cc1,"2.24 µM [falling, full curve]",–
31,Cc1ccc(NC(=O)c2ccc(-c3nn(C)c(=O)c4ccccc34)cc2)c(C)c1,"6.51 µM [rising, single point]",–
32,Nc1cc2nsnc2cc1Br,"22.4 µM [falling, single point]",–
33,Brc1ccc(-c2nnc(-c3ccc4c(c3)OCO4)o2)o1,"0.092 µM [rising, full curve, poor fit]",–
34,COc1ccc(-c2nc(CN3CCC(C(=O)N4CCOCC4)CC3)c(C)o2)cc1C,"2.51 µM [rising, full curve]",–
35,CCN(CC)CCNC(=O)c1cn(CC)c2cc(N3CCN(C)CC3)c(F)cc2c1=O,"25.1 µM [falling, single point]","35.5 µM [rising, partial curve, poor fit]"
36,O=C(Cc1ccc(Br)cc1)Nc1cccc(S(=O)(=O)N2CCOCC2)c1,"2.91 µM [rising, partial curve, poor fit]",–
37,COc1ccccc1OCCCn1cc(C#N)c2ccccc21,"29.1 µM [falling, single point]",–
38,COc1ccc(-c2cc(=O)[nH]c(NCc3ccccc3)n2)cc1,"3.26 µM [rising, partial curve, poor fit]","20.6 µM [falling, partial curve, poor fit]"
39,CCOc1cc(-c2noc(N)c2C#N)cc(OCC)c1OCC,"4.47 µM [falling, partial curve, poor fit]",–
40,O=C(COc1ccccc1Cl)Nc1ccc(Cl)cn1,"0.501 µM [rising, full curve, poor fit]",–
41,COc1ccc(-c2c(-c3cc(OC)c(OC)c(OC)c3)noc2C)cn1,"14.1 µM [rising, partial curve]","11.2 µM [falling, partial curve]"

2 of these compounds, set out differently.
Row	Structure (SMILES)	AC50 [1]	AC50 [2]
32	Nc1cc2nsnc2cc1Br	22.4 µM [falling, single point]	–
33	Brc1ccc(-c2nnc(-c3ccc4c(c3)OCO4)o2)o1	0.092 µM [rising, full curve, poor fit]	–

Later entries

Row | Structure (SMILES) | AC50 [1] | AC50 [2]
43 | O=C(c1cc(-c2ccc(Cl)cc2)on1)N1CCN(c2ccccc2)CC1 | 0.224 µM [falling, full curve] | –
44 | C=CCc1c(C)nc(SCCC)[nH]c1=O | 10 µM [rising, partial curve] | –
45 | Cn1c2ccccc2c2c(C(=O)N3CCN(c4ccccn4)CC3)cn(C3CCCC3)c(=O)c21 | 8.2 µM [falling, partial curve] | –
46 | COc1ccc(-c2cc(C(F)(F)F)nc(S(C)(=O)=O)n2)cc1 | 10.3 µM [falling, partial curve] | 7.31 µM [rising, partial curve]
47 | OCCNc1nc(-c2cccnc2)nc2ccccc12 | 12.6 µM [falling, partial curve, poor fit] | –
48 | O=C(O)/C=C/C(=O)c1c(-c2ccccc2)[nH]c2ccccc12 | 35.5 µM [falling, single point] | –
49 | O=C(CNC(=O)c1ccccc1F)NC1CCN(Cc2ccccc2)CC1 | 5.01 µM [rising, partial curve, poor fit] | –
50 | O=C(CCSCc1ccccc1Cl)NC1CCCC1 | 29.1 µM [rising, single point] | –
51 | CC1SCC(=O)N(CC(=O)NCCc2ccccc2)C1=O (stereo unspecified) | 5.01 µM [rising, single point] | –
52 | C(=N\Nc1nc2ccccc2[nH]1)/C1CCCCC1 | – | 35.5 µM [falling, partial curve, poor fit]
53 | CC1CCCN(CCCNC(=O)c2cc3c(s2)-c2ccccc2OC3)C1 (stereo unspecified) | 10 µM [falling, partial curve, poor fit] | –
54 | Cc1c(NC(=O)c2cc(-c3ccc(F)cc3)on2)c(=O)n(-c2ccccc2)n1C | 22.4 µM [falling, partial curve, poor fit] | –
55 | CC(C)=CCC[C@](C)(O)C1CC[C@]2(C)C1[C@H](O)CC1[C@@]3(C)CC[C@H](O[C@@H]4O[C@H](CO)[C@@H](O)[C@H](O)[C@H]4O[C@@H]4O[C@H](CO)[C@@H](O)[C@H](O)[C@H]4O)C(C)(C)C3CC[C@]12C (stereo partly specified) | 10.3 µM [rising, partial curve] | –
56 | Clc1cccc(-c2nc(-c3ccccn3)no2)c1 | 17.8 µM [falling, partial curve, poor fit] | –
57 | O=C(Nc1sc2c(c1C(=O)O)CCCC2)c1cccc(Cl)c1 | 0.112 µM [falling, full curve] | –
58 | O=C(CNC(=S)NC(=O)c1cccs1)c1ccccc1 | 3.66 µM [rising, partial curve, poor fit] | –
59 | Cc1ccc(CC2C(=O)N(c3ccc(C)cc3)C(=O)C2C)cc1 (stereo unspecified) | 11.2 µM [rising, partial curve, poor fit] | –
60 | O=C(CCNC(=O)c1ccc([N+](=O)[O-])cc1)Nc1cc(Cl)ccc1N1CCOCC1 | – | 16.4 µM [falling, partial curve, poor fit]
61 | Cc1ccc(C)c(N(CC(=O)NC2CCCC2)C(=O)c2cc3cc4cccc(C)c4nc3s2)c1 | 28.2 µM [rising, partial curve, poor fit] | –
